Sequences and labels used below:
B1: Cell division protein FtsA (protein, UniProt Q9K0X8 1-414)
chain: MEQQQRYISVLDIGTSKVLALIGEVQDDDKINIVGLGQAPSRGLRAGMVTNIDATVQAIRQAVNDAELMADTKITHVTTGIAGNHIRSLNSQGVVKIKDGEVTQADIDRAIETAKAINIPPDQKILDAVVQDYIIDTQLGVREPIGMSGVRLDTRVHIITGASTAVQNVQKCIERCGLKSDQIMLQPLASGQAVLTEDEKDLGVCVIDIGGGTTDIAVYMNGAIRHTSVIPAGGNLITKDLSKSLRTPLDAAEYIKIHYGVASCDTEGLGEMIEVPGVGDRTSRQVSSKVLAAIISARIQEIFGVVLGELQKSGFPKEVLNAGIVLTGGVSMMTGIVEFAEKIFDLPVRTGAPQEMGGLSDRVRTPRFSTAIGLLHAACKLEGNLPQPENGAVQEREGGGGLLARLKRWIENSF
B2: PilN protein (protein, UniProt Q4W563 1-199)
chain: MNNLIKINLLPYREEMNKRKQQQFKTLMYGAVLTGVAAVAATYLFIDNMINNQSERNTLLETSIAHLDTELSEIQKLKQEKDAFLIKKNKIEELQLKRLQAAKILDSLNEAVPGSTYLTSLDAVTADSYRLSGRTSSDNRVAAMMRAMPNTGIFKQPELLSIKKNNSHQEFTLQATLQPIVKAAESKENPASGNAQEAN
B3: Single-stranded DNA-binding protein (protein, UniProt P66849 1-174)
chain: MSLNKVILIGRLGRDPEVRYMPNGEAVCNFSVATSETWNDRNGQRVERTEWHNITMYRKLAEIAGQYLKKGGLVYLEGRIQSRKYQGKDGIERTAYDIVANEMKMLGGRNENSGGAPYEEGYGQSQEAYQRPAQQSRQPASDAPSHPQEAPAAPRRQPVPAAAPVEDIDDDIPF
B4: Recombination protein RecR (protein, UniProt Q9JZ92 1-206)
chain: MMSHKKQDAFQGLIDALKVLPNVGPKSAQRIAYHLLQHKRKEAEKLVDALQTALKQVYHCAMCNTFCEGGLCDICADETRDGRRLMVVHMPADVSNMEAANCHDGLYFVLMGQINTALGMDVSAIALDRLAQRLGGGEVEEIIIATAFTAEGNATAYVLSEFFKNLPYKVSRLSQGIPLGGELEYVDAGTLAQAVYERRLIKEGGA
B5: Type IV pilus biogenesis and competence protein PilQ (protein, UniProt Q70M91 25-769)
chain: GNITDIKVSSLPNKQKIVKVSFDKEIVNPTGFVTSSPARIALDFEQTGISMDQQVLEYADPLLSKISAAQNSSRARLVLNLNKPGQYNTEVRGNKVWIFINESDDTVSAPARPAVKAAPAAPAKQQAAAPSTKSAVSVSEPFTPAKQQAAAPFTESVVSVSAPFSPAKQQAAASAKQQAAAPAKQQAAAPAKQQAAAPAKQTNIDFRKDGKNAGIIELAALGFAGQPDISQQHDHIIVTLKNHTLPTTLQRSLDVADFKTPVQKVTLKRLNNDTQLIITTAGNWELVNKSAAPGYFTFQVLPKKQNLESGGVNNAPKTFTGRKISLDFQDVEIRTILQILAKESGMNIVASDSVNGKMTLSLKDVPWDQALDLVMQARNLDMRQQGNIVNIAPRDELLAKDKALLQAEKDIADLGALYSQNFQLKYKNVEEFRSILRLDNADTTGNRNTLISGRGSVLIDPATNTLIVTDTRSVIEKFRKLIDELDVPAQQVMIEARIVEAADGFSRDLGVKFGATGKKKLKNDTSAFGWGVNSGFGGDDKWGAETKINLPITAAANSISLVRAISSGALNLELSASESLSKTKTLANPRVLTQNRKEAKIESGYEIPFTVTSIANGGSSTNTELKKAVLGLTVTPNITPDGQIIMTVKINKDSPAQCASGNQTILCISTKNLNTQAMVENGGTLIVGGIYEEDNGNTLTKVPLLGDIPVIGNLFKTRGKKTDRRELLIFITPRIMGTAGNSLRY
B6: Fimbrial protein; PilS cassette (protein, UniProt P05431 8-170)
chain: FTLIELMIVIAIVGILAAVALPAYQDYTARAQVSEAILLAEGQKSAVTEYYLNHGEWPGNNTSAGVATSSEIKGKYVKSVEVKNGVVTAQMASSNVNNEIKGKKLSLWAKRQNGSVKWFCGQPVTRDKAKAANDDVTAAAAANGKKIDTKHLPSTCRDASDAS
B7: DNA repair protein RecO (protein, UniProt Q9K0W0 1-263)
chain: MSEYRVNHEPVFMLASSPWRESSLWVEAFSRRYGRVALLARSARKRQSELRGVLVPFVPVSVSWYGSQELKTLHRAEWVGGWRQPQGRALFGGLYVNELVLKLTAREDPVPELYDALAEVMEAVCCKAAYIDDLRRFEWRLLNLLGVAPDLNRDGDGGTIAAGGTYLVRPETAVFPVGKGFAVPPHAAGVVAPGQSLIDLREGSFRTAESLQQALKITRLFIRHLLPEGLKSRQVLEQIRQFDRKETARETVPTSDGTASNAV
B8: Twitching motility protein PilT (protein, UniProt Q7DDU1 1-347)
chain: MQITDLLAFGAKNKASDLHLSSGISPMIRVHGDMRRINLPEMSAEEVGNMVTSVMNDHQRKIYQQNLEVDFSFELPNVARFRVNAFNIGRGPAAVFRTIPSTVLSLEELKAPSIFQKIAESPRGMVLVTGPTGSGKSTTLAAMINYINETQPAHILTIEDPIEFVHQSKKSLINQRELHQHTLSFANALRSALREDPDVILVGEMRDPETIGLALTAAETGHLVFGTLHTTGAAKTVDRIVDVFPAGEKEMVRSMLSESLTAVISQNLLKTHDGNGRVASHEILIANPAVRNLIRENKITQINSVLQTGQASGMQTMDQSLQSLVRQGLIAPEVARRRAQNSESMSF
B9: Protein RecA (protein, UniProt P0DH59 1-348)
chain: MSDDKSKALAAALAQIEKSFGKGAIMKMDGSQQEENLEVISTGSLGLDLALGVGGLPRGRIVEIFGPESSGKTTLCLEAVAQCQKNGGVCAFVDAEHAFDPVYARKLGVKVEELYLSQPDTGEQALEICDTLVRSGGIDMVVVDSVAALVPKAEIEGDMGDSHVGLQARLMSQALRKLTGHIKKTNTLVVFINQIRMKIGVMFGSPETTTGGNALKFYSSVRLDIRRTGSIKKGEEVLGNETRVKVIKNKVAPPFRQAEFDILYGEGISWEGELIDIGVKNDIINKSGAWYSYNGAKIGQGKDNVRVWLKENPEVANEIDAKIRALNGVEMHITEGTQDETDGERPEE
B10: DNA topoisomerase 1 (enzyme, UniProt Q9K1K0 1-768)
chain: MAKNLLIVESPSKAKTLKKYLGGDFEILASYGHVRDLVPKSGAVDPDNGFAMKYQLISRNGKHVDAIVAGAKEAENIYLATDPDREGEAISWHLLEILKSKRGLKNIKPQRVVFHEITKNAVLDAVAHPREIEMDLVDAQQARRALDYLVGFNLSPLLWKKIRRGLSAGRVQSPALRLICERENEIRAFEAQEYWTVHLDSHKGRSKFTAKLAQYNGAKLEQFDLPNEAAQADVLKELEGKEAVVTAIEKKKRSRNPAAPFTTSTMQQDAVRKLGFTTDRTMRTAQQLYEGIDVGQGAIGLITYMRTDSVNLADEALTEIRHYIENKIGKEYLPSAAKQYKTKSKNAQEAHEAIRPTSVYRTPESVKPFLSADQFKLYQMIWQRTVACQMTPAKFDQTTVDITVGKGVFRVTGQVQTFAGFLSVYEESSDDEEGEDSKKLPEMSEGDKLPVDKLYGEQHFTTPPPRYNEATLVKALEEYGIGRPSTYASIISTLKDREYVTLEQKRFMPTDTGDIVNKFLTEHFAQYVDYHFTAKLEDQLDEIADGKRQWIPLMDKFWKPFIKQVEEKEGIERAKFTTQELDETCPKCGEHKLQIKFGKMGRFVACAGYPECSYTRNVNETAEEAAERIAKAEAEQAELDGRECPKCGGRLVYKYSRTGSKFIGCVNYPKCKHVEPLEKPKDTGVQCPQCKKGNLVERKSRYGKLFYSCSTYPDCNYATWNPPVAEECLNCHWPVLTIKTTKRWGVEKVCPQKECGWKEQIEPPAPKE
B11: Pilus assembly protein PilG (protein, UniProt Q7DDR1 1-410)
chain: MAKNGGFSLFAKKEKRFIFEGRHSASDKLVNGEVSAFTEEEARKKLAKRGIRPLQITRVKTSSKRKITQEDITVFTRQLSTMIKAGLPLMQAFEIVARGHGNPSMTEMLMEIRGEVEQGSSLSRAFSNHPKYFDRFYCNLVAAGETGGVLESLLDKLAIYKEKTQAIRKKVKTALTYPVSVIAVAIGLVFVMMIFVLPAFKEVYANMGAELPALTQTVMDMSDFFVSYGWMVLIALGFAIYGFLKLKARSIKIQRRMDAILLRMPIFGDIVRKGTIARWGRTTATLIAAGVPLVDVLDSTAGAAGNLIYEEATREIRTRVIQGLSMTSGMRATELFPNMMLQMSSIGEESGSLDDMLNKAAEFYEDEVDNAVGRLSAMMEPIIIVILGLVIGTLLVAMYLPLFNLGNVVA

Consider eleven molecules from PMC5399837.

Results are given in words; binding and its absence hold for the method and conditions named. In cells and extracts the contact can be indirect. Here binding means that the protein was enriched with, or labelled near, the bait; the list need not be complete. No binding means not detected with the bait.

One assay concerns the target T1, Pilus assembly protein PilG (Neisseria meningitidis (endogenous in strain MC58)) (UniProt Q7DDR1).
T1 sequence: B11 chain
Put plainly: affinity purification with mass spectrometry; Dynabeads coupled to rabbit polyclonal anti-PilG antibody, incubated with Nm MC58 wildtype lysate (100 mM NaCl, 2 mM MgCl, 1 mM DTT, 1% DDM) at 4 °C for 1.5 h; eluate digested in solution with trypsin, LC-MS/MS; ΔpilG lysate as control.
In the case of B1, the binding entry is reported as “no binding”.

As to B2, the binding entry was “binds”.

In the case of B3, the binding entry is “binds”.

On to B4, for which the binding entry is “no binding”.

With B5, the binding entry is “no binding”.

Turning to B6, the binding result is reported as “binds”.

In the case of B7, the binding entry was “no binding”.

The next assay addresses DNA processing chain A (Neisseria meningitidis (endogenous in strain MC58)) (UniProt Q9K1K1). Nature of the assay: affinity purification with mass spectrometry; Dynabeads coupled to rabbit polyclonal anti-DprA antibody, incubated with Nm MC58 wildtype lysate (100 mM NaCl, 2 mM MgCl, 1 mM DTT, 1% DDM) at 4 °C for 1.5 h; eluate digested in solution with trypsin, LC-MS/MS; ΔdprA lysate as control.
For B8, the binding result was “no binding”.

With B9, the binding entry was “no binding”.

Turning to B2, the binding entry is given as “binds”.

As to B3, the binding result is on record as “binds”.

On to B4, for which the binding result is recorded as “binds”.

Take B5: the binding entry is “binds”.

As for B10, the binding result is “binds”.

Regarding B7, the binding entry is listed as “binds”.

Another assay deals with T2, Fimbrial protein; PilS cassette (Neisseria meningitidis (endogenous in strain MC58)) (UniProt P05431).
T2 sequence: B6 chain
Nature of the assay: affinity purification with mass spectrometry; Co-IP with rabbit polyclonal antibody raised against purified Tfp (PilE), Dynabeads Co-Immunoprecipitation Kit, Nm MC58 wildtype lysate; eluate digested in solution with trypsin, LC-MS/MS.
Take B1: the binding result is on record as “no binding”.

For the molecule B8, the binding result is listed as “binds”.

B2: the binding result was “binds”.

For B3, the binding result was “binds”.

In the case of B4, the binding entry is given as “no binding”.

Consider B5, for which the binding result is reported as “no binding”.

For B11, the binding entry was “binds”.

B7: the binding entry is “no binding”.
